Compound in the experiment: Nc1ncnc2c1ncn2[C@@H]1O[C@H](COP(=O)(O)OP(=O)(O)NP(=O)(O)O)[C@@H](O)[C@H]1O [adenylyl imidodiphosphate]
As to the kind of experiment: NP40-soluble protein abundance relative to vehicle (solubility fold change) (ratio); higher = more soluble protein in presence of AMP-PNP. In outline:
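Across three independent experiments, values are fold changes against the detergent-processed vehicle for each replicate, based on vsn-normalised intensities. The samples were Jurkat crude lysate treated with eight concentrations (0.1 to 10 mM) for 10 min at room temperature and then 3 min at 37 °C. Lysate was solubilised with 0.8% NP40 and benzonase, ultracentrifuged, and the supernatant analysed by TMT-labelled LC-MS/MS.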

Sequences of proteins named here, by UniProt entry; tags and fusion partners are left off. A change or cut given only in a name is not applied to a line headed by its entry.
UniProt Q96DI7: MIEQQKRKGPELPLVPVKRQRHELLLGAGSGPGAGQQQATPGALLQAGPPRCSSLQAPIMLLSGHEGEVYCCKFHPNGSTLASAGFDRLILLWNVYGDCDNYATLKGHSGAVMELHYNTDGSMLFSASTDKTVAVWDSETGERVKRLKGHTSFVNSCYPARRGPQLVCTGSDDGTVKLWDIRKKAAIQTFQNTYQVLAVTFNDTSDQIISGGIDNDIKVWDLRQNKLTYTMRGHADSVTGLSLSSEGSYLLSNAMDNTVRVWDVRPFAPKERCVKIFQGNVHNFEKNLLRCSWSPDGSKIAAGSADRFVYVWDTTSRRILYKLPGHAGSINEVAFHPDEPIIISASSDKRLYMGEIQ
UniProt Q969E2: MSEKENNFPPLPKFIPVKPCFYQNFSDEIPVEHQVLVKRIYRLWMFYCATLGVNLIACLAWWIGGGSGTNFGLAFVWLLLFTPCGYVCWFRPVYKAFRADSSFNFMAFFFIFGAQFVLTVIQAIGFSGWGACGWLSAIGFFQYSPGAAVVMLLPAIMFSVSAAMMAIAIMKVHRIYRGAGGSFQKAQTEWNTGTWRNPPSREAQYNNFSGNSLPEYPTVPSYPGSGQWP
UniProt Q96HE7: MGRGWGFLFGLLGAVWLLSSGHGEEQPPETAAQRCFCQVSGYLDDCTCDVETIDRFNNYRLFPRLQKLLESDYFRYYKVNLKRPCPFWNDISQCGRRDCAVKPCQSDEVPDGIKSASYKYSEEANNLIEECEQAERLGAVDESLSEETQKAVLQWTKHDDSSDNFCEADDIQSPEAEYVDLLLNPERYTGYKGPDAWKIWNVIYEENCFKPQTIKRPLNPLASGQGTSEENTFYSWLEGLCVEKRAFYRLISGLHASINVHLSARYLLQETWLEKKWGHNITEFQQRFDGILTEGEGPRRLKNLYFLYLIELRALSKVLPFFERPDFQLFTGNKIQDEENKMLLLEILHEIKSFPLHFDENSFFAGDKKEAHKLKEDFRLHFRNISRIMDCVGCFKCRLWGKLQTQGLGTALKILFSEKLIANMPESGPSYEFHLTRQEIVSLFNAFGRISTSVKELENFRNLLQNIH
UniProt Q96MX3: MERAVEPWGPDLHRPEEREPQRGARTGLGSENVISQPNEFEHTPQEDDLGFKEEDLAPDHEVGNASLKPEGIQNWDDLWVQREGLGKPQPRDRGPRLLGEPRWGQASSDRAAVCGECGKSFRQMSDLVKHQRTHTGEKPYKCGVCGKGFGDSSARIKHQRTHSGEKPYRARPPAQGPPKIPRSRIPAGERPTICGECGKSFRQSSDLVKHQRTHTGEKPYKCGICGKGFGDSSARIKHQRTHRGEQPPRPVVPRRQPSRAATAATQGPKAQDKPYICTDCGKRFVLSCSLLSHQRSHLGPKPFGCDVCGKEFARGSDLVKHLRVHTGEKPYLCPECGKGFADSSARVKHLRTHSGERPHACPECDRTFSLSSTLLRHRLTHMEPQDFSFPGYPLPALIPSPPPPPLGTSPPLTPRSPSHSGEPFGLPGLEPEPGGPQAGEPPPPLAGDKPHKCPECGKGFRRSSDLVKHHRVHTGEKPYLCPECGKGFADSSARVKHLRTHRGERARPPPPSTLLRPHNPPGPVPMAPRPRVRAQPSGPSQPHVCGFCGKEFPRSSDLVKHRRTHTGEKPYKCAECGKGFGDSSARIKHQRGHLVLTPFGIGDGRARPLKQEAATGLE
UniProt Q96FJ2, whole entry: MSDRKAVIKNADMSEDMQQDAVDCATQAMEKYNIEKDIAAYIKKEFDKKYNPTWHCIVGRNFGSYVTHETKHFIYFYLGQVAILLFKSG
UniProt Q96MX6, whole entry: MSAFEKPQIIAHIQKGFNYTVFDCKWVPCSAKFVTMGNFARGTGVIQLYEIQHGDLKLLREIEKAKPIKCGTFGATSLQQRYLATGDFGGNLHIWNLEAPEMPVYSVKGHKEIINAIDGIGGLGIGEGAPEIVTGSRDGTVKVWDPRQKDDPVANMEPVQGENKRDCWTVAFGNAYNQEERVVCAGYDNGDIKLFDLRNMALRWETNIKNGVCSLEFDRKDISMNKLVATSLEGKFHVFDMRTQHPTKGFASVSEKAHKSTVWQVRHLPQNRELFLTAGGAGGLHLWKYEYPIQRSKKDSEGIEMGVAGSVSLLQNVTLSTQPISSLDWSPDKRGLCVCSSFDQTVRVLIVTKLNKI
UniProt Q96D53: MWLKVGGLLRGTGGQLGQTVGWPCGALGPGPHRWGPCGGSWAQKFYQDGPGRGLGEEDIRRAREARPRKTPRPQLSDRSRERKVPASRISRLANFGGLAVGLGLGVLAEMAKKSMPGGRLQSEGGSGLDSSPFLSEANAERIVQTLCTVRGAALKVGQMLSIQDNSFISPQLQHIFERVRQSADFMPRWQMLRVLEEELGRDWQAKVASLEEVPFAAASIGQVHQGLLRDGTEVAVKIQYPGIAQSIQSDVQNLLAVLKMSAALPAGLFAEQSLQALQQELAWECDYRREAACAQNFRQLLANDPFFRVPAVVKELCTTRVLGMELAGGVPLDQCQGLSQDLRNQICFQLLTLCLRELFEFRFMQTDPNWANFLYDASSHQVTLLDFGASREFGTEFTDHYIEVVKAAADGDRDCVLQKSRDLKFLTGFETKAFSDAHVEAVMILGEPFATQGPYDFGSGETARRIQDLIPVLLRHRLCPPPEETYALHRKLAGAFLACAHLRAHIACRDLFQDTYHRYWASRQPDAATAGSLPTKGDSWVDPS
UniProt Q96CP6, whole entry: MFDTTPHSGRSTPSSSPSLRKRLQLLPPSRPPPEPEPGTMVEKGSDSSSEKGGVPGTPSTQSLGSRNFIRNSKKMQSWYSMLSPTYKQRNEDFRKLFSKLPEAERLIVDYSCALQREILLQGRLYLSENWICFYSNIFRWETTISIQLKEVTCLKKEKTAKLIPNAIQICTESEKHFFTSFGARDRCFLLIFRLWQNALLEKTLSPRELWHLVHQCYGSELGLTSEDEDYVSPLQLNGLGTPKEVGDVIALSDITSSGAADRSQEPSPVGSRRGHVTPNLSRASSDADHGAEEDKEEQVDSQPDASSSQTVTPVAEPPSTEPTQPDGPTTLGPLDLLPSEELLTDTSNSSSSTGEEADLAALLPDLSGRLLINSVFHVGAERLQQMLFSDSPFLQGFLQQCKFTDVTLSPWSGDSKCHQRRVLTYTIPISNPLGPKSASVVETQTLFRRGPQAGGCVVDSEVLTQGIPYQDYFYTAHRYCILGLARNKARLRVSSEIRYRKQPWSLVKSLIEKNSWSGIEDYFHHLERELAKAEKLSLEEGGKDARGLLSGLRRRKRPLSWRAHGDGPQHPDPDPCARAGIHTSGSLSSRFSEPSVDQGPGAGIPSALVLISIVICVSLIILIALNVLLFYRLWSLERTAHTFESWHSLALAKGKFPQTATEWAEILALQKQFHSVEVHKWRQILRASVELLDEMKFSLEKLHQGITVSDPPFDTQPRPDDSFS
UniProt Q96EX1: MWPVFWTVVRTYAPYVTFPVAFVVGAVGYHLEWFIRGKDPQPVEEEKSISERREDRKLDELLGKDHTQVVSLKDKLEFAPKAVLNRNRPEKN
UniProt Q96L73: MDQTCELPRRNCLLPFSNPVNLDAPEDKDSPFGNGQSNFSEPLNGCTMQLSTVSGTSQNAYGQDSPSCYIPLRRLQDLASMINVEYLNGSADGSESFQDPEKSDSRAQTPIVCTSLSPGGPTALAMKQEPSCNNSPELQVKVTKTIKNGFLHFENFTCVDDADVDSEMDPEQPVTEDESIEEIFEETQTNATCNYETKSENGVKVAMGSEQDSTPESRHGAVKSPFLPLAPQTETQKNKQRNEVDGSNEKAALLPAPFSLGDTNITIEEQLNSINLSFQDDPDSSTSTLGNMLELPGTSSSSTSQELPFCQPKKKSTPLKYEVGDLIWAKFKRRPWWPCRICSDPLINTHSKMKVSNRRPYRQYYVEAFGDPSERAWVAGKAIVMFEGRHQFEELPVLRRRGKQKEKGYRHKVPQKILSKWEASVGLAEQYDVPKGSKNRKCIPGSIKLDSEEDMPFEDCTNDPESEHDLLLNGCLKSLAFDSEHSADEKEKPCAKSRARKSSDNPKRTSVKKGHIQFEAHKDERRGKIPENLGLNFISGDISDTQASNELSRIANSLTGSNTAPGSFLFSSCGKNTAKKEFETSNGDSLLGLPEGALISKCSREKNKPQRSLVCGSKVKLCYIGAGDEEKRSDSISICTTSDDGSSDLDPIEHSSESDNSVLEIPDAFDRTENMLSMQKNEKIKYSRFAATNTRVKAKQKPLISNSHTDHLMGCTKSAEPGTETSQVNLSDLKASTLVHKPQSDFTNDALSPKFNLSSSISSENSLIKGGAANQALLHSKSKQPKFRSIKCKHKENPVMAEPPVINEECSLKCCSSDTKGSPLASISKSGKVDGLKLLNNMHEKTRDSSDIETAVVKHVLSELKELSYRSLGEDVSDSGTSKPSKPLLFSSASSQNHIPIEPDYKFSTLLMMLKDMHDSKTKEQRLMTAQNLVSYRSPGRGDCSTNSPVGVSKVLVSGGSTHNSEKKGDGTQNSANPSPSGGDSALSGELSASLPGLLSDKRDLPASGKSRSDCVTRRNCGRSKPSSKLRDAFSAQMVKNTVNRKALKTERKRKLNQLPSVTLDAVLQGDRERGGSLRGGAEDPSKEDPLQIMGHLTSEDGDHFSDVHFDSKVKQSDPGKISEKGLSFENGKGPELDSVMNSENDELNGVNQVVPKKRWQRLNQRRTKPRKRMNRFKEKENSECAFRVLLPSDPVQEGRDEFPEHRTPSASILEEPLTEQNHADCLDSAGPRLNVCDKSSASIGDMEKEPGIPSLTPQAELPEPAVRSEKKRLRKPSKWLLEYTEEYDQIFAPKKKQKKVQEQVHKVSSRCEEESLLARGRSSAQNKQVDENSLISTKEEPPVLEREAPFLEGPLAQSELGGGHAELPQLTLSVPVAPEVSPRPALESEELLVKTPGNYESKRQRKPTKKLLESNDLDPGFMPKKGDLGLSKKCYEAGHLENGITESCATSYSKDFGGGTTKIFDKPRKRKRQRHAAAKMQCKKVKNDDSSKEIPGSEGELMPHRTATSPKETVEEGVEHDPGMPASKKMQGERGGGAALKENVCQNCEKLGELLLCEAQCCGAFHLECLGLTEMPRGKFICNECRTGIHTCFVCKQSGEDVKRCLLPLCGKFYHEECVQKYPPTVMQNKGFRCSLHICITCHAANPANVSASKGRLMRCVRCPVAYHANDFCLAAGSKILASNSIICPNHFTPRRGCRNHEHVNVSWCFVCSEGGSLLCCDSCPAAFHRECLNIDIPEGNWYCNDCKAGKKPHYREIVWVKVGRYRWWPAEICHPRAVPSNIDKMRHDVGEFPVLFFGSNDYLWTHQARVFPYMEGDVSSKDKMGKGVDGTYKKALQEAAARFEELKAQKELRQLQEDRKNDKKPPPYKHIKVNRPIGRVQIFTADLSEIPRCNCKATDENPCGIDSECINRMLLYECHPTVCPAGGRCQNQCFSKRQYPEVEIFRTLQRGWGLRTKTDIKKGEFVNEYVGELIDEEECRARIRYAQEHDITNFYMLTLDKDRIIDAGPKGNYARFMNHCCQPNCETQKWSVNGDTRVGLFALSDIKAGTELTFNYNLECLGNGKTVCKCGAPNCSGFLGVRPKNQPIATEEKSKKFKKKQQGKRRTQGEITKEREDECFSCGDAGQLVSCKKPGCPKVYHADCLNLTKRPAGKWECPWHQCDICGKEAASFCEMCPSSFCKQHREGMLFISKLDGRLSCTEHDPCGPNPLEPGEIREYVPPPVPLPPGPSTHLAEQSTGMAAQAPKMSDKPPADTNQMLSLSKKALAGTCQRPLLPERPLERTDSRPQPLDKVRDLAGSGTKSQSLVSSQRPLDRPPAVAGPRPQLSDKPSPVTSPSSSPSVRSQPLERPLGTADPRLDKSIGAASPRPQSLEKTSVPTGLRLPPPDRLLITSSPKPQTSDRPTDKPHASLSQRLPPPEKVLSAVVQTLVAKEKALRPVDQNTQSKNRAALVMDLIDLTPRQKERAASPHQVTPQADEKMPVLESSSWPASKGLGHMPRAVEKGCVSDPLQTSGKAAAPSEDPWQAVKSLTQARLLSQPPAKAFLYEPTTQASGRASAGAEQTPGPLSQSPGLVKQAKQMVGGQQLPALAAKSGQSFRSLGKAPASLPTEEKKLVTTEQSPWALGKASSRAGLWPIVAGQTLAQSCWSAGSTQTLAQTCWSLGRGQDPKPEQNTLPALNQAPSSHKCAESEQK
UniProt Q96BZ9: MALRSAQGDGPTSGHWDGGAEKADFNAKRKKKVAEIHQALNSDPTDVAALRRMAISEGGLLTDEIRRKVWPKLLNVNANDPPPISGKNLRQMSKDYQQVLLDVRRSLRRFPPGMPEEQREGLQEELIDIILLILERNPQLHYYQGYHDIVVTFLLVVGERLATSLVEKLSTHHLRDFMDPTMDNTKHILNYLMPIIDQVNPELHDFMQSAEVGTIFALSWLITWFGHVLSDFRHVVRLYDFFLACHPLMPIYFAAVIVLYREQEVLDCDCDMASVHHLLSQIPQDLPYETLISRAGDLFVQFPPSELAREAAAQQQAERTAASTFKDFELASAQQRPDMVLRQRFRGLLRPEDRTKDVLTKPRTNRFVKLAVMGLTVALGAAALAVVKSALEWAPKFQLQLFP

± gives the standard deviation of the averaged measurements. Only a part is listed here, and it is no random draw. Most entries show no effect beyond the scatter of the controls.

Turning to UniProt Q96DI7 and related entries, the NP40-soluble protein abundance amounted to 1 ± 0.036 (concentration: 0.1mM) and 1.01 ± 0.023 (concentration: 0.5mM).

In the case of UniProt Q93074-2, the NP40-soluble protein abundance runs as follows: (concentration: 0.1mM) 1.02 ± 0.014; (concentration: 0.5mM) 0.99 ± 0.046.

For the target PTER (UniProt Q96BW5), the NP40-soluble protein abundance runs as follows: (concentration: 0.1mM) 0.998 ± 0.025; (concentration: 0.5mM) 0.972 ± 0.032.

In the case of UniProt Q969E2 and related entries, the NP40-soluble protein abundance amounted to 1.04 ± 0.042 (concentration: 0.1mM) and 0.966 ± 0.0098 (concentration: 0.5mM).

Take UniProt Q96D05 and related entries: the NP40-soluble protein abundance (concentration: 0.1mM) is 0.983 ± 0.01 and the NP40-soluble protein abundance (concentration: 0.5mM) was 0.999 ± 0.016.

UniProt Q96HE7: the NP40-soluble protein abundance (concentration: 0.1mM) was determined as 1.01 ± 0.049 and the NP40-soluble protein abundance (concentration: 0.5mM) was found to be 1.05 ± 0.012.

Take UniProt Q96II8 and related entries: the NP40-soluble protein abundance by setting is: (concentration: 0.1mM) 1.003 ± 0.0085; (concentration: 0.5mM) 1.01 ± 0.021.

Consider UniProt Q96PY6 and related entries, for which the NP40-soluble protein abundance runs as follows: (concentration: 0.1mM) 0.9895 ± 0.0083; (concentration: 0.5mM) 0.994 ± 0.026.

Consider UniProt Q96QT6 and related entries, for which the NP40-soluble protein abundance by setting is: (concentration: 0.1mM) 0.989 ± 0.019; (concentration: 0.5mM) 1.01 ± 0.044.

In the case of LRRC45 (UniProt Q96CN5), the NP40-soluble protein abundance reads like this: (concentration: 0.1mM) 0.982 ± 0.029; (concentration: 0.5mM) 0.976 ± 0.079.

Take FAHD2A (UniProt Q96GK7): the NP40-soluble protein abundance reads like this: (concentration: 0.1mM) 1.02 ± 0.023; (concentration: 0.5mM) 1.02 ± 0.048.

With UniProt Q96PV6-2, the NP40-soluble protein abundance stood at 0.974 ± 0.013 (concentration: 0.1mM) and 0.981 ± 0.011 (concentration: 0.5mM).

For the target ZNF48 (UniProt Q96MX3), the NP40-soluble protein abundance worked out at 1.02 ± 0.02 (concentration: 0.1mM) and 1.01 ± 0.018 (concentration: 0.5mM).

As to PUS7 (UniProt Q96PZ0), the NP40-soluble protein abundance is, setting by setting: (concentration: 0.1mM) 1.005 ± 0.0093; (concentration: 0.5mM) 1.002 ± 0.0076.

For the target DNAJA3 (UniProt Q96EY1), the NP40-soluble protein abundance turned out to be 1 ± 0.045 (concentration: 0.1mM) and 0.99 ± 0.058 (concentration: 0.5mM).

With MRPL53 (UniProt Q96EL3), the NP40-soluble protein abundance by setting is: (concentration: 0.1mM) 1.03 ± 0.023; (concentration: 0.5mM) 1.03 ± 0.038.

With UniProt Q96FJ2, the NP40-soluble protein abundance is 1.08 ± 0.059 (concentration: 0.1mM) and 1.08 ± 0.086 (concentration: 0.5mM).

Turning to WDR92 (UniProt Q96MX6), the NP40-soluble protein abundance by setting is: (concentration: 0.1mM) 1.03 ± 0.041; (concentration: 0.5mM) 1.03 ± 0.023.

As for UniProt Q969X5 and related entries, the NP40-soluble protein abundance is, setting by setting: (concentration: 0.1mM) 1.01 ± 0.071; (concentration: 0.5mM) 0.976 ± 0.12.

In the case of UniProt Q96EK5, the NP40-soluble protein abundance by setting is: (concentration: 0.1mM) 1.03 ± 0.013; (concentration: 0.5mM) 1 ± 0.059.

With THOC3 (UniProt Q96J01), the NP40-soluble protein abundance was 1.06 ± 0.013 (concentration: 0.1mM) and 1.05 ± 0.072 (concentration: 0.5mM).

Consider UniProt Q96HA7 and related entries, for which the NP40-soluble protein abundance is, setting by setting: (concentration: 0.1mM) 0.985 ± 0.034; (concentration: 0.5mM) 0.979 ± 0.03.

As for UniProt Q96AP4 and related entries, the NP40-soluble protein abundance runs as follows: (concentration: 0.1mM) 1 ± 0.017; (concentration: 0.5mM) 0.992 ± 0.036.

With RBMXL1 (UniProt Q96E39), the NP40-soluble protein abundance amounted to 1.04 ± 0.036 (concentration: 0.1mM) and 1.06 ± 0.068 (concentration: 0.5mM).

On to CCDC51 (UniProt Q96ER9), for which the NP40-soluble protein abundance turned out to be 0.981 ± 0.041 (concentration: 0.1mM) and 1.02 ± 0.043 (concentration: 0.5mM).

Consider CCDC124 (UniProt Q96CT7), for which the NP40-soluble protein abundance was determined as 1.03 ± 0.026 (concentration: 0.1mM) and 1.07 ± 0.043 (concentration: 0.5mM).

Take TBRG4 (UniProt Q969Z0): the NP40-soluble protein abundance came out at 0.978 ± 0.018 (concentration: 0.1mM) and 1.01 ± 0.018 (concentration: 0.5mM).

As for UniProt Q96AE7 and related entries, the NP40-soluble protein abundance turned out to be 1.01 ± 0.028 (concentration: 0.1mM) and 0.979 ± 0.029 (concentration: 0.5mM).

For UniProt Q96G23, the NP40-soluble protein abundance reads like this: (concentration: 0.1mM) 1.07 ± 0.093; (concentration: 0.5mM) 1.01 ± 0.11.

Turning to UniProt Q969H8, the NP40-soluble protein abundance by setting is: (concentration: 0.1mM) 0.993 ± 0.044; (concentration: 0.5mM) 1.02 ± 0.065.

Regarding UniProt Q96D53, the NP40-soluble protein abundance came out at 1.019 ± 0.0012 (concentration: 0.1mM) and 0.974 ± 0.022 (concentration: 0.5mM).

For UniProt Q96CN4 and related entries, the NP40-soluble protein abundance is, setting by setting: (concentration: 0.1mM) 1 ± 0.011; (concentration: 0.5mM) 0.9886 ± 0.0095.

On to UniProt Q96DF8, for which the NP40-soluble protein abundance by setting is: (concentration: 0.1mM) 0.982 ± 0.01; (concentration: 0.5mM) 0.969 ± 0.054.

Regarding PCMTD1 (UniProt Q96MG8), the NP40-soluble protein abundance (concentration: 0.1mM) amounted to 0.996 ± 0.056 and the NP40-soluble protein abundance (concentration: 0.5mM) is 1.01 ± 0.03.

Turning to UniProt Q96CP6 and related entries, the NP40-soluble protein abundance is, setting by setting: (concentration: 0.1mM) 1.01 ± 0.017; (concentration: 0.5mM) 1.037 ± 0.0057.

For the target RPRD1A (UniProt Q96P16), the NP40-soluble protein abundance (concentration: 0.1mM) amounted to 1.01 ± 0.042 and the NP40-soluble protein abundance (concentration: 0.5mM) was found to be 1.01 ± 0.054.

With EAF1 (UniProt Q96JC9), the NP40-soluble protein abundance worked out at 0.967 ± 0.035 (concentration: 0.1mM) and 1.01 ± 0.041 (concentration: 0.5mM).

As for CDK5RAP3 (UniProt Q96JB5), the NP40-soluble protein abundance was 0.998 ± 0.028 (concentration: 0.1mM) and 0.943 ± 0.019 (concentration: 0.5mM).

In the case of UniProt Q96Q45 and related entries, the NP40-soluble protein abundance (concentration: 0.1mM) is 0.968 ± 0.029 and the NP40-soluble protein abundance (concentration: 0.5mM) amounted to 0.981 ± 0.055.

Consider VPS35 (UniProt Q96QK1), for which the NP40-soluble protein abundance runs as follows: (concentration: 0.1mM) 1.03 ± 0.068; (concentration: 0.5mM) 0.982 ± 0.08.

As for UniProt Q96EX1, the NP40-soluble protein abundance (concentration: 0.1mM) was determined as 0.925 ± 0.023 and the NP40-soluble protein abundance (concentration: 0.5mM) worked out at 1.06 ± 0.086.

As to UniProt Q96PU5 and related entries, the NP40-soluble protein abundance amounted to 1.04 ± 0.0037 (concentration: 0.1mM) and 1.018 ± 0.007 (concentration: 0.5mM).

Turning to ELP4 (UniProt Q96EB1), the NP40-soluble protein abundance (concentration: 0.1mM) was found to be 1.03 ± 0.026 and the NP40-soluble protein abundance (concentration: 0.5mM) was determined as 0.982 ± 0.044.

Turning to UniProt Q96AT9 and related entries, the NP40-soluble protein abundance is 1 ± 0.045 (concentration: 0.1mM) and 1.05 ± 0.066 (concentration: 0.5mM).

Take NUDT11 (UniProt Q96G61): the NP40-soluble protein abundance reads like this: (concentration: 0.1mM) 1.04 ± 0.018; (concentration: 0.5mM) 1.04 ± 0.048.

For the target UniProt Q96FJ0 and related entries, the NP40-soluble protein abundance by setting is: (concentration: 0.1mM) 1.01 ± 0.026; (concentration: 0.5mM) 0.996 ± 0.031.

Take UniProt Q96N16 and related entries: the NP40-soluble protein abundance runs as follows: (concentration: 0.1mM) 1.03 ± 0.05; (concentration: 0.5mM) 1.04 ± 0.086.

In the case of ALKBH3 (UniProt Q96Q83), the NP40-soluble protein abundance by setting is: (concentration: 0.1mM) 1 ± 0.016; (concentration: 0.5mM) 1.01 ± 0.03.

For CCDC97 (UniProt Q96F63), the NP40-soluble protein abundance is, setting by setting: (concentration: 0.1mM) 1.03 ± 0.098; (concentration: 0.5mM) 1.02 ± 0.042.

As to UniProt Q96BX8, the NP40-soluble protein abundance (concentration: 0.1mM) was 1.03 ± 0.047 and the NP40-soluble protein abundance (concentration: 0.5mM) came out at 0.994 ± 0.021.

UniProt Q93015 and related entries: the NP40-soluble protein abundance worked out at 0.949 ± 0.027 (concentration: 0.1mM) and 0.973 ± 0.073 (concentration: 0.5mM).

In the case of UniProt Q96L73 and related entries, the NP40-soluble protein abundance runs as follows: (concentration: 0.1mM) 0.9905 ± 0.0073; (concentration: 0.5mM) 0.997 ± 0.043.

Consider UniProt Q96BZ9 and related entries, for which the NP40-soluble protein abundance (concentration: 0.1mM) worked out at 0.976 ± 0.035 and the NP40-soluble protein abundance (concentration: 0.5mM) was 0.985 ± 0.027.

Take SMARCD1 (UniProt Q96GM5): the NP40-soluble protein abundance is 1.02 ± 0.06 (concentration: 0.1mM) and 1.03 ± 0.081 (concentration: 0.5mM).

Turning to PWWP2A (UniProt Q96N64), the NP40-soluble protein abundance is, setting by setting: (concentration: 0.1mM) 1.02 ± 0.028; (concentration: 0.5mM) 1.02 ± 0.029.

Consider GCC1 (UniProt Q96CN9), for which the NP40-soluble protein abundance reads like this: (concentration: 0.1mM) 0.993 ± 0.031; (concentration: 0.5mM) 0.974 ± 0.021.

For the target MRPS24 (UniProt Q96EL2), the NP40-soluble protein abundance (concentration: 0.1mM) was determined as 1.08 ± 0.048 and the NP40-soluble protein abundance (concentration: 0.5mM) came out at 1.04 ± 0.033.

Regarding DPH3 (UniProt Q96FX2), the NP40-soluble protein abundance runs as follows: (concentration: 0.1mM) 1.02 ± 0.045; (concentration: 0.5mM) 1 ± 0.029.
